Measured values taken from the supplement of paper PMC11732987, “Enantioselective OTUD7B fragment discovery through chemoproteomics screening and high-throughput optimisation” (Communications Chemistry, 2025).
The other results are listed elsewhere or left out. The data scatter; read single values as rough.

Amino acid sequences for entries named in this document (tags omitted). A change or cut given only in a name is not applied to a line headed by its entry. Residues count along the entry.
UniProt Q8NFC6, 867-895: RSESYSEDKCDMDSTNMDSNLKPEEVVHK
UniProt Q8NFC6, 1547-1570: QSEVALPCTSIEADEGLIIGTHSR
UniProt P51587, whole entry, looked up: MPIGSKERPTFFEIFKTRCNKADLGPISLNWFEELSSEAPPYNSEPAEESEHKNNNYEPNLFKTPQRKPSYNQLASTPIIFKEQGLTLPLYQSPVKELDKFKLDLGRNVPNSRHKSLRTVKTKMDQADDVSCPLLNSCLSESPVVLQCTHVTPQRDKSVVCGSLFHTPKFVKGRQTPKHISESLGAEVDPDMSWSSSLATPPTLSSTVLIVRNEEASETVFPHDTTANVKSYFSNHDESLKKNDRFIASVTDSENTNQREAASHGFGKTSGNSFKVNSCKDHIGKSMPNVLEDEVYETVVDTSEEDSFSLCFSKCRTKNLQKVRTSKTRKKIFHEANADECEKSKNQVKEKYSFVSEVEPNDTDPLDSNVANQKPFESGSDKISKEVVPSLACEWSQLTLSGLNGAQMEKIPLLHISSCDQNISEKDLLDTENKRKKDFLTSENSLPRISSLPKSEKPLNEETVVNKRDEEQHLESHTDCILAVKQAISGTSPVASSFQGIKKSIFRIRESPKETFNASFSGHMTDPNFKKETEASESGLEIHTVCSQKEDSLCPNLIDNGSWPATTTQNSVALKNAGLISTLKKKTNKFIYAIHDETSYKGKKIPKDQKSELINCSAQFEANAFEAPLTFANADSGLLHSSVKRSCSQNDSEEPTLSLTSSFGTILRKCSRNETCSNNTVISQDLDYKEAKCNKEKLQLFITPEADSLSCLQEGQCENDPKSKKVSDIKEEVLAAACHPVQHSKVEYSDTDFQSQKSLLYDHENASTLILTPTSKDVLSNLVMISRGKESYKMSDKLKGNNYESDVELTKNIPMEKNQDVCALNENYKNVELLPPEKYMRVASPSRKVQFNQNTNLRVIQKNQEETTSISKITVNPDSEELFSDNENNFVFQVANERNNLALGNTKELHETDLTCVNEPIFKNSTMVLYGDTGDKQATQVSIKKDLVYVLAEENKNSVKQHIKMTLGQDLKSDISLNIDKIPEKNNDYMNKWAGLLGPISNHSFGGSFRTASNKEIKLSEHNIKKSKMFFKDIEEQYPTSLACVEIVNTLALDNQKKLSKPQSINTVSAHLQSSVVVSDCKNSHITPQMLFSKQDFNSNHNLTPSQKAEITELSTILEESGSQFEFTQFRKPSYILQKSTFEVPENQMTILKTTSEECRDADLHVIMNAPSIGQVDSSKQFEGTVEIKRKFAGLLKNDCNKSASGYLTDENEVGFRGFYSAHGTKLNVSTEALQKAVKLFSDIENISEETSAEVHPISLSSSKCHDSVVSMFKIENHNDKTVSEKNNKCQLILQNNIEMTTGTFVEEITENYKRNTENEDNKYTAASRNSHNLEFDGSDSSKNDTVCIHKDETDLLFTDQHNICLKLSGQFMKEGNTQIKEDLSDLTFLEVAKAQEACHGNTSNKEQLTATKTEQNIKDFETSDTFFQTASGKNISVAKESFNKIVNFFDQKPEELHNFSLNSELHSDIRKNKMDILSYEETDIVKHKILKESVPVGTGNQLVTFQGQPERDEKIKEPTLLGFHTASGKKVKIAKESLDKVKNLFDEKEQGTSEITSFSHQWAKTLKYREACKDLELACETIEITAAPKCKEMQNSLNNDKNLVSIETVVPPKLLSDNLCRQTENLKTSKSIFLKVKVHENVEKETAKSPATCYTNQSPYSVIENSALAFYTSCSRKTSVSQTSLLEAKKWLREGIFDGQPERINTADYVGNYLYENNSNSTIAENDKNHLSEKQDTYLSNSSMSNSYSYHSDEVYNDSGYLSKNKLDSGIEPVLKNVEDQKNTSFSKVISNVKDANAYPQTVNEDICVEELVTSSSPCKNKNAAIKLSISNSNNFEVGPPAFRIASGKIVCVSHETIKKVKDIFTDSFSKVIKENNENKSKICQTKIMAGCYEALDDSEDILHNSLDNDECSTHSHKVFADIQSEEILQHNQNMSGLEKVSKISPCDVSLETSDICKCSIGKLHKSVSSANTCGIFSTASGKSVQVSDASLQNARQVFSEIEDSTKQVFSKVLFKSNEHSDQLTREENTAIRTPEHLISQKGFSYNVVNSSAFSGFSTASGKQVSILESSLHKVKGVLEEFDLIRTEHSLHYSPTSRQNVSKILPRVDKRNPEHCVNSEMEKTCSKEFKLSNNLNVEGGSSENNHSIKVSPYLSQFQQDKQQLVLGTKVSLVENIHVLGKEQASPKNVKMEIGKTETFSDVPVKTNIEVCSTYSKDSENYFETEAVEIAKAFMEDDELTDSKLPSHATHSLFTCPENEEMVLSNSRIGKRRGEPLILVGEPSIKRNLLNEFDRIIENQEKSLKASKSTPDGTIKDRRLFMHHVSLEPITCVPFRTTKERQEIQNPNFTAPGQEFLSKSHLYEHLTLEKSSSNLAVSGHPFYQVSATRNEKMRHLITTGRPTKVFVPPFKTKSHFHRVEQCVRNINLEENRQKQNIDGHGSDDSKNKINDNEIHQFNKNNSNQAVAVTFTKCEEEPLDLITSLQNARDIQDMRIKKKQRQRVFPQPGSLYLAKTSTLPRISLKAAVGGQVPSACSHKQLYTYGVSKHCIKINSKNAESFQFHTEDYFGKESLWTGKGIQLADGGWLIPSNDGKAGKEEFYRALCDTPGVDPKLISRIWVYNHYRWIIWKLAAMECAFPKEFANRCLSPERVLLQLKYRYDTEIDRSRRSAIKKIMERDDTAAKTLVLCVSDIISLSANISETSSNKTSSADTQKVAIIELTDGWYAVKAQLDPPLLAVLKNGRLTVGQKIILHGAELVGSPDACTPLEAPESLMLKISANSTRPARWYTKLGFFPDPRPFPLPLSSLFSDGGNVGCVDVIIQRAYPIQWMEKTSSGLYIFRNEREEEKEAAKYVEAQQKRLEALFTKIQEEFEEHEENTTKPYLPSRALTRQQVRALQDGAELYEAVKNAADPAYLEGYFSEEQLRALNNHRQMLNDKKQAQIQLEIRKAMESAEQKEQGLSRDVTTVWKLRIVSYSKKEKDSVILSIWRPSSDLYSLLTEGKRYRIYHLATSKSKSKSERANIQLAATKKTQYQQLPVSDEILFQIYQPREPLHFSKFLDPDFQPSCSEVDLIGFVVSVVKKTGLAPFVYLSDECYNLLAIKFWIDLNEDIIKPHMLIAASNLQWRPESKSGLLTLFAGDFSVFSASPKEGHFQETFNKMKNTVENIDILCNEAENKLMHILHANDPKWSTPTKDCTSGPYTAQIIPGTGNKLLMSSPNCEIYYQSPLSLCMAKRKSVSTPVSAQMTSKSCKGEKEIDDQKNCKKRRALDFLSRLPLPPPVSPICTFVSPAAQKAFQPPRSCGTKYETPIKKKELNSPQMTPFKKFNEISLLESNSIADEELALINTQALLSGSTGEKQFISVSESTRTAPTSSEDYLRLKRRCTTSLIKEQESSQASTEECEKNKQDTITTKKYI
UniProt P35520, 337-359: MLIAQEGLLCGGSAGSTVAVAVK
UniProt Q6PGQ7, whole entry, looked up: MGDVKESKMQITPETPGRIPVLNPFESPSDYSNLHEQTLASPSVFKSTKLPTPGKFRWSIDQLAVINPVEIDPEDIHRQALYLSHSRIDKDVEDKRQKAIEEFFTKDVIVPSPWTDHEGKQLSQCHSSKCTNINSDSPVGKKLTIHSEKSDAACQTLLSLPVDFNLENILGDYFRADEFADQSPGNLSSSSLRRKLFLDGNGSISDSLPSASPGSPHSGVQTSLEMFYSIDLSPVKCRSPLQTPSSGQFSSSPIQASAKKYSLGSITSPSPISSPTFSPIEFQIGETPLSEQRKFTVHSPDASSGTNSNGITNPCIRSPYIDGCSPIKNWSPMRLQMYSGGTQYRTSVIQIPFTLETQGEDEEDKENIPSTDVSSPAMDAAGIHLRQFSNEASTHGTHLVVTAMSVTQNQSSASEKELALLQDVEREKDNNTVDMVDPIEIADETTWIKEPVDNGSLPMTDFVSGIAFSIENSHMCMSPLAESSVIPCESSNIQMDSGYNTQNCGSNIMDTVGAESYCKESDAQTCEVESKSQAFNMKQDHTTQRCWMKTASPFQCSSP
UniProt O14523, 356-381: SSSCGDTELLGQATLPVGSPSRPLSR
UniProt Q5T5Y3: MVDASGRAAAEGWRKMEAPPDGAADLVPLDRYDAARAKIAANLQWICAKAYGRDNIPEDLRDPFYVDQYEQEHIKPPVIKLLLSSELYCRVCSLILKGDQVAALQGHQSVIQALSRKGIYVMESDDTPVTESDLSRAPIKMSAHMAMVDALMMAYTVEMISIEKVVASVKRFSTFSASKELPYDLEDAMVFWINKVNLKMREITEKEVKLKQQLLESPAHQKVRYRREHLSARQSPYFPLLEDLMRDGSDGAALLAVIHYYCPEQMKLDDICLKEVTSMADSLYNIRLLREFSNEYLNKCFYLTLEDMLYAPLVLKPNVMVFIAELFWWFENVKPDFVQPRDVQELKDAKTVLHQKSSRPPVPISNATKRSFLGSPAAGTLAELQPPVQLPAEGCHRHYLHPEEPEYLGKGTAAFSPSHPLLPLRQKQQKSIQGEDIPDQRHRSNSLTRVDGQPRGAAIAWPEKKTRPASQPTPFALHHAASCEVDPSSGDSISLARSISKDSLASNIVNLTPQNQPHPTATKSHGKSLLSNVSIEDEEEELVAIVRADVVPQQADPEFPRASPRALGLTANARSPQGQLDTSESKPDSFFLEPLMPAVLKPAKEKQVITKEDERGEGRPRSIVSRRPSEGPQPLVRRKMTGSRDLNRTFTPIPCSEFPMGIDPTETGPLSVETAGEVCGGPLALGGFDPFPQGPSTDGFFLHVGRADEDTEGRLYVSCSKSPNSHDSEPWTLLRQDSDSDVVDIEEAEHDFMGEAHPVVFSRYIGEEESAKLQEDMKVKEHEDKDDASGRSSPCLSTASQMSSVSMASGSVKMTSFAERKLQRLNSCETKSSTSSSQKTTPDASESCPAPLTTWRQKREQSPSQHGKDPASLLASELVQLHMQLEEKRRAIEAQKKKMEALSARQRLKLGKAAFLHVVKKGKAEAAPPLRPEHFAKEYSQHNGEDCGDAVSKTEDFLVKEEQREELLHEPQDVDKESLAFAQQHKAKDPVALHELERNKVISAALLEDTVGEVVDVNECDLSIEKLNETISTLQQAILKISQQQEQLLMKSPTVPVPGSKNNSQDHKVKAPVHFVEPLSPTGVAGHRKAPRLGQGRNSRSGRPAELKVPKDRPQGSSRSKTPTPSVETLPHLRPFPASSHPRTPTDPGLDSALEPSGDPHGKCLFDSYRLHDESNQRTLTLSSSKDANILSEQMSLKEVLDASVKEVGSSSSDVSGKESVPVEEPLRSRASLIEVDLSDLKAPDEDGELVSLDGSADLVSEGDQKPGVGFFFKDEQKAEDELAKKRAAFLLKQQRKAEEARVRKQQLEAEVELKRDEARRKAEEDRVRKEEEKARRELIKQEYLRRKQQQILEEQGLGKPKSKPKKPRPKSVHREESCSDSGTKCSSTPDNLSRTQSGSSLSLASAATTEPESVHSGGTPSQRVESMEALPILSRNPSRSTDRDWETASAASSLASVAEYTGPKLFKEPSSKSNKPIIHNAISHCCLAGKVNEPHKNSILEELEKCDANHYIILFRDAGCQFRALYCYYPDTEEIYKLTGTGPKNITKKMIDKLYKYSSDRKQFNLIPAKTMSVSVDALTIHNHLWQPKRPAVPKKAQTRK
UniProt P17655: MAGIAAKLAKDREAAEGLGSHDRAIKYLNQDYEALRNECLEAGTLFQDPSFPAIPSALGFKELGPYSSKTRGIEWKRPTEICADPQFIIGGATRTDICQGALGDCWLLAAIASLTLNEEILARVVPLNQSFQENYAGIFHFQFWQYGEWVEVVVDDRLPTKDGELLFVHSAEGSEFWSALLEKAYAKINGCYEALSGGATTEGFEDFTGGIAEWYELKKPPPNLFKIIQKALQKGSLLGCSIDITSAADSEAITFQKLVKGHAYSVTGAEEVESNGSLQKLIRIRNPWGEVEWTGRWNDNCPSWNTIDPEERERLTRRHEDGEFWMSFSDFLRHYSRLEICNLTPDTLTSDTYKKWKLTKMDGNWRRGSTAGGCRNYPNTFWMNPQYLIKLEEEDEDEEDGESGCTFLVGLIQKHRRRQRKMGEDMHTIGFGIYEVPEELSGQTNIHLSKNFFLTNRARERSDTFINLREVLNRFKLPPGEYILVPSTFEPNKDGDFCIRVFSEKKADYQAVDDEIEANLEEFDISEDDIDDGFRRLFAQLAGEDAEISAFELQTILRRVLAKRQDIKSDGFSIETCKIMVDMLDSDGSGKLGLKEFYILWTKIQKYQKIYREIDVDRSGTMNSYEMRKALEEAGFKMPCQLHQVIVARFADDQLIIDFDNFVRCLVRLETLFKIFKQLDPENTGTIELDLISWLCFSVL
UniProt Q9BV19: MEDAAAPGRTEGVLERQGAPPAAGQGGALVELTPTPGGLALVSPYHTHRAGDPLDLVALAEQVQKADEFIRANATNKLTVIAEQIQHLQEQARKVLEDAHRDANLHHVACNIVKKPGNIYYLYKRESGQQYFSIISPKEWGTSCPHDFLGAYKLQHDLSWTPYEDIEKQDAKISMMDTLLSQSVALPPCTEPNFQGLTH
UniProt Q9H8G2, 215-234: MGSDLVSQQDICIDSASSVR

How the values were obtained:
[1] = compound: ClCC(=O)N[C@@H]1CCCc2ccccc12; experiment: log2 mean competition ratio of IA-DTB cysteine labelling (DMSO/compound) (log2 ratio); higher = stronger cysteine engagement by compound; details: treatment time: 4 h, cell line lysate: HEK293T
Protocol: (§1)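 IA-DTB competitive cysteine chemoproteomics in HEK293T RIPA lysate. Lysates were treated with compound 29 or 30 at 50 or 200 µM for 4 h, then IA-DTB (500 µM, 1 h), trypsin-digested, NeutrAvidin-enriched and analysed by diaPASEF. Competition ratio = intensity DMSO / intensity compound (n=4 treated, n=64 DMSO); binding: mean log2 CR ≥ 1 and p ≤ 0.05 plus QC filters. Target is the cysteine site.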

[2] = compound: ClCC(=O)N[C@H]1CCCc2ccccc12; experiment: as above; details: treatment time: 4 h, cell line lysate: HEK293T
Protocol: as §1

Target	log2 mean competition ratio ([1]; 50 µM)	log2 mean competition ratio ([1]; 200 µM)	log2 mean competition ratio ([2]; 200 µM)	log2 mean competition ratio ([2]; 50 µM)
BOD1L1 C2570 (UniProt Q8NFC6)	-0.0655	0.0652		
CAMSAP2 C1416 (UniProt Q08AD1)	-0.133	-0.0566		
BOP1 C108 (UniProt Q14137)	-0.114	-0.0969		
C2CD5 C142 (UniProt Q86YS7)	-0.0976	0.0321		
BRCA2 C3198 (UniProt P51587)	0.0687	-0.357		
BPGM C23 (UniProt P07738)	-0.142	-0.206		
CBS C346 (UniProt P35520)	-0.379	0.495		
C8orf76 C32 (UniProt Q96K31)	-0.235	-0.12		
BORA C130 (UniProt Q6PGQ7)	0.0432	0.152		
BOD1L1 C1729 (UniProt Q8NFC6)	-0.127	0.194		
BRCC3 C228 (UniProt P46736)	0.0154	0.0478		
CABIN1 C1769 (UniProt Q9Y6J0)	-0.0906	-0.0945		
BRCA1 C442 (UniProt P38398)	-0.218	-0.0117		
CAPN15 C123 (UniProt O75808)	-0.112	-0.19		
CBR4 C55 (UniProt Q8N4T8)	-0.115	-0.27		
C2CD2L C359 (UniProt O14523)	0.0279	-0.22		
CAMK2G C7 (UniProt Q13555)	0.0482	0.147		
BRAP C47 (UniProt Q7Z569)	-0.17	0.0681		
CAND1 C1007	0.0896	-0.0589		
BRCA2 C916 (UniProt P51587)	-0.149	0.0125		
CABIN1 C207 (UniProt Q9Y6J0)	0.185	0.0977		
BTBD2 C294 (UniProt Q9BX70)	-0.174	0.128		
BRF1 C430 (UniProt Q92994)	-0.173	-0.266		
CAMSAP2 C512 (UniProt Q08AD1)	0.0645	-0.0241		

Target	log2 mean competition ratio ([1]; 50 µM)	log2 mean competition ratio ([1]; 200 µM)	log2 mean competition ratio ([2]; 200 µM)	log2 mean competition ratio ([2]; 50 µM)
CADPS2 C639	0.155	0.21		
BRD7 C107 (UniProt Q9NPI1)	-0.0587	0.197		
CAD C986	0.0942	-0.177		
C11orf68 C214 (UniProt Q9H3H3)	-0.665	-0.239		
C1GALT1 C232 (UniProt Q9NS00)	0.0512	0.0987		
C17orf80 C228 (UniProt Q9BSJ5)	-0.0831	0.214		
BOD1L1 C2164 (UniProt Q8NFC6)	-0.229	-0.00641		
C5orf22 C165 (UniProt Q49AR2)	-0.0662	0.241		
CACNA2D2 C1083	-0.188	0.118		
C18orf21 C18 (UniProt Q32NC0)	0.0884	0.0226		
BRWD3 C782	-0.335	0.105		
CASP9 C187 (UniProt P55211)	-0.143	0.0727		
C8orf33 C21 (UniProt Q9H7E9)	-0.115	-0.108		
CBX2 C89 (UniProt Q14781)	0.0404	-0.0731	-0.02	
CARS1 C506	-0.0682	-0.0748		
CBX4 C185 (UniProt O00257)	-0.0989	-0.0203		
BOD1L1 C2438 (UniProt Q8NFC6)	-0.0449	-0.316	-0.123	0.149
C2orf69 C43 (UniProt Q8N8R5)	-0.0353	0.122		
CAND2 C945 (UniProt O75155)	0.0715	0.0605	0.176	-0.183
CBR4 C5 (UniProt Q8N4T8)	-0.0279	0.0255		
C2orf69 C230 (UniProt Q8N8R5)	-0.134	0.205		
BRCA2 C822 (UniProt P51587)	0.233	0.115	-0.198	
CAMSAP1 C947 (UniProt Q5T5Y3)	-0.0496	0.0607		
CASP6 C264 (UniProt P55212)	-0.0735	0.0102	-0.163	-0.35

Target	log2 mean competition ratio ([1]; 50 µM)	log2 mean competition ratio ([1]; 200 µM)	log2 mean competition ratio ([2]; 200 µM)	log2 mean competition ratio ([2]; 50 µM)
CASP6 C68 (UniProt P55212)	0.0275	0.0602		
BUB1B C775 (UniProt O60566)	0.0725	-0.184		
BRD1 C895	-0.185	-0.203		
CARMIL1 C235	-0.176	-0.0283		
BTD C380 (UniProt P43251)	-0.0959	0.211	0.128	-0.279
BRME1 C79	0.29	0.0592		
CAST C408 (UniProt P20810)	0.0493	0.308		
CAD C897	-0.0904	0.0754		
CBR3 C150 (UniProt O75828)	0.28	-0.02		
BRPF1 C992	0.0379	-0.139	0.287	0.467
CADPS2 C919	-0.208	-0.226		
CAD C736	-0.0101	-0.0587		
C12orf29 C294 (UniProt Q8N999)	-0.156	0.0472		
CAPN5 C495	-0.13	-0.0923	-0.0582	-0.135
CAST C328 (UniProt P20810)	0.0425	-0.117		
BOLA1 C126 (UniProt Q9Y3E2)	0.158	-0.0666		
CAPN2 C374 (UniProt P17655)	0.0378	0.192	0.581	0.112
CAD C787	0.108	-0.136	-0.33	-0.496
CBFA2T2 C573 (UniProt O43439)	0.078	0.000623		
BOD1L1 C1170 (UniProt Q8NFC6)	-0.265	0.000872	0.0942	0.0283
CARMIL1 C1106	0.0789	0.156		
CAND1 C571	0.0917	-0.0957		
C2CD2L C115 (UniProt O14523)	-0.00249	0.128		
BTAF1 C1401 (UniProt O14981)	0.065	-0.36		

Target	log2 mean competition ratio ([1]; 50 µM)	log2 mean competition ratio ([1]; 200 µM)	log2 mean competition ratio ([2]; 200 µM)	log2 mean competition ratio ([2]; 50 µM)
C8orf76 C248 (UniProt Q96K31)	0.0276	-0.176	-0.321	-0.0971
BRIP1 C125 (UniProt Q9BX63)	-0.298	0.152	-0.455	-0.253
BRCA1 C712 (UniProt P38398)	-0.177	-0.11	-0.297	-0.0314
C15orf39 C483 (UniProt Q6ZRI6)	-0.0589	0.086	0.152	0.189
CAD C379	0.255	-0.182	-0.154	0.261
CAMK2D C481 (UniProt Q13557)	-0.00503	-0.456	-0.612	0.0503
BRIX1 C107 (UniProt Q8TDN6)	-0.743	0.0599	0.431	-0.188
BOD1L1 C876 (UniProt Q8NFC6)	-0.253	-0.165	-0.422	-0.683
CACYBP C154 (UniProt Q9HB71)	-0.202	-0.248	-0.0653	0.33
BORA C324 (UniProt Q6PGQ7)	-0.271	-0.141	0.196	-0.2
CADPS2 C1097	-0.00684	-0.213	-0.17	-0.657
CA8 C200 (UniProt P35219)	0.24	0.0103	-0.337	-0.0832
BORCS6 C356 (UniProt Q96GS4)	0.0404	-0.197	0.103	0.29
C1orf50 C110 (UniProt Q9BV19)	0.342	0.0208	-0.162	-0.119
CAND1 C131	-0.188	0.138	0.102	-0.209
CAMKMT C208 (UniProt Q7Z624)	-0.239	-0.255	-0.159	0.376
CAD C1215	-0.0658	-0.136	-0.13	0.175
CARMIL1 C464	-0.127	0.0989	0.209	-0.33
BOD1L1 C1554 (UniProt Q8NFC6)	-0.179	-0.123	0.0133	-0.0258
BTN3A2 C220 (UniProt P78410)	-0.0397	0.0864	-0.0653	-0.0194
CAPZB C62 (UniProt P47756)	0.194	-0.179	-0.167	0.201
BRMS1L C61 (UniProt Q5PSV4)	-0.116	0.00569	0.211	-0.197
CAPZA2 C111 (UniProt P47755)	-0.204	0.0624	-0.228	-0.352
BRCA2 C2473 (UniProt P51587)	-0.103	0.0336	-0.223	-0.217

Target	log2 mean competition ratio ([1]; 50 µM)	log2 mean competition ratio ([1]; 200 µM)	log2 mean competition ratio ([2]; 200 µM)	log2 mean competition ratio ([2]; 50 µM)
CAPN1 C351	0.0945	-0.161	-0.13	-0.373
CAPN2 C301 (UniProt P17655)	0.55	-0.0911	-0.138	0.861
CACUL1 C362 (UniProt Q86Y37)	0.173	-0.0211	-0.0504	0.276
CAPNS1 C144	-0.064	-0.0597	0.0946	-0.0811
CAMSAP1 C848 (UniProt Q5T5Y3)	-0.241	0.132	0.185	0.217
CAPN1 C11	-0.462	-0.215	-0.0183	-0.304
C12orf57 C73 (UniProt Q99622)	0.311	0.207	0.223	0.35
BUB1B C767 (UniProt O60566)	-0.318	-0.211	-0.226	-0.233
CAMSAP1 C828 (UniProt Q5T5Y3)	-0.0901	0.104	0.31	-0.0435
BRCA2 C2212 (UniProt P51587)	0.00319	-0.264	-0.193	-0.0453
BUD31 C78 (UniProt P41223)	-0.0699	-0.251	-0.167	-0.0452
BORA C526 (UniProt Q6PGQ7)	0.305	-0.168	-0.676	-0.396
BOD1L1 C1618 (UniProt Q8NFC6)	-0.165	-0.0412	-0.0439	-0.143
CAAP1 C226 (UniProt Q9H8G2)	-0.125	0.167	-0.0236	-0.104
C1orf112 C103 (UniProt Q9NSG2)	0.00792	-0.109	-0.109	0.0368
CAMK1 C179 (UniProt Q14012)	0.0679	0.149	0.0449	0.557
CAND1 C356	0.0463	-0.0237	-0.086	-0.231
CAPN2 C341 (UniProt P17655)	-0.00347	-0.208	-0.179	-0.159
BOD1L1 C285 (UniProt Q8NFC6)	-0.273	-0.548	-0.404	-0.0909
C11orf96 C420 (UniProt Q7Z7L8)	-0.0135	0.138	0.462	0.418
C2CD5 C831 (UniProt Q86YS7)	0.481	-0.437	0.205	0.0722

A few values from the list:
In log2 mean competition ratio ([2]; 200 µM), CAAP1 C226 (UniProt Q9H8G2) reads -0.0236
In log2 mean competition ratio ([2]; 200 µM), BORA C526 (UniProt Q6PGQ7) reads -0.676
In log2 mean competition ratio ([1]; 50 µM), CAPN2 C341 (UniProt P17655) reads -0.00347
In log2 mean competition ratio ([1]; 200 µM), C11orf96 C420 (UniProt Q7Z7L8) reads 0.138
In log2 mean competition ratio ([2]; 50 µM), CAPN1 C351 reads -0.373
In log2 mean competition ratio ([1]; 50 µM), CAMK1 C179 (UniProt Q14012) reads 0.0679
